Data as given in PubChem BioAssay AID504784 (Drosophila RNAi Screening Center, 2011).
The deposit covers about 17,000 reagents; below is a random part of those that have a named target and a result. 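Each column is one replicate's B-score; the combined score over replicates was not deposited, so single values may mislead.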 Not all columns of the deposit are shown.

- Screen: 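Search for regulators of lipid droplet storage in oleate-fed fly cells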 (primary screen)
- Cell system: Drosophila Kc167 embryonic cells
- Reagent: long dsRNA against Drosophila genes, about 250 ng dsRNA per well
- Duration: 4 days
- Conditions: cells fed 400 µM oleic acid bound to BSA
- Detection: 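Microscope images give a droplet-to-nucleus area ratio, taken as log and converted to a screen-wide B-score; higher values mean greater lipid storage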
- Scale: droplet/nuclear area B-score: higher = more stored lipid (overstorage)

With CG10352 [SID104199145], how do the results read?
droplet/nuclear area B-score, replicate 1: -0.304

With Ubc2 [SID104180929], what does the deposit list?
droplet/nuclear area B-score, replicate 1: -0.217

What is on record for Ubc2 [SID104183260]?
droplet/nuclear area B-score, replicate 1: -3.98

How did the screen score Rab18 [SID104198494]?
droplet/nuclear area B-score, replicate 1: -0.488

For ND-SGDH [SID104190894], what was measured?
droplet/nuclear area B-score, replicate 1: 0.202

What did the screen give for LTV1 [SID104185743]?
droplet/nuclear area B-score, replicate 1: 0.49

What did the screen give for Top2 [SID104183251]?
droplet/nuclear area B-score, replicate 1: 0.219

How did the screen score Cyp4g15 [SID104200032]?
droplet/nuclear area B-score, replicate 1: 1.03

For Syt1 [SID104179948], how do the results read?
droplet/nuclear area B-score, replicate 1: -0.0472

With Syt1 [SID104179949], what was measured?
droplet/nuclear area B-score, replicate 1: 0.0783

With Syt1 [SID104179950], how do the results read?
droplet/nuclear area B-score, replicate 1: 0.0263

For Syt1 [SID104180632], what does the deposit list?
droplet/nuclear area B-score, replicate 1: -0.701

What is on record for Syt1 [SID104201651]?
droplet/nuclear area B-score, replicate 1: -0.985

With CG14448 [SID104191497], what does the deposit list?
droplet/nuclear area B-score, replicate 1: 1.26

Which result is listed for Or22b [SID104180557]?
droplet/nuclear area B-score, replicate 1: -0.535

For CG10962 [SID104198213], what was measured?
droplet/nuclear area B-score, replicate 1: -0.988

Which result is listed for Bap170 [SID104184756]?
droplet/nuclear area B-score, replicate 1: 0.998

Which result is listed for Bap170 [SID104201476]?
droplet/nuclear area B-score, replicate 1: 0.756

Laid out differently: entries from further up
gene | PubChem SID | droplet/nuclear area B-score, replicate 1
LTV1 | SID104185743 | 0.49
Top2 | SID104183251 | 0.219
Cyp4g15 | SID104200032 | 1.03

Next records follow:
For trh [SID104188147], what does the deposit list?
droplet/nuclear area B-score, replicate 1: 0.352

What did the screen give for trh [SID104188531]?
droplet/nuclear area B-score, replicate 1: -0.0504

How did the screen score Fuca [SID104190383]?
droplet/nuclear area B-score, replicate 1: -0.288

With Adck5 [SID104190682], what was measured?
droplet/nuclear area B-score, replicate 1: 0.225

Which result is listed for CG18262 [SID104197941]?
droplet/nuclear area B-score, replicate 1: 0.0423

Which result is listed for CG32163 [SID104189234]?
droplet/nuclear area B-score, replicate 1: -0.263

With CG11722 [SID104194150], what does the deposit list?
droplet/nuclear area B-score, replicate 1: 2.7

What is on record for kud [SID104190878]?
droplet/nuclear area B-score, replicate 1: -0.137

Which result is listed for Myd88 [SID104186607]?
droplet/nuclear area B-score, replicate 1: 0.0303

What did the screen give for msd1 [SID104188175]?
droplet/nuclear area B-score, replicate 1: -0.31

How did the screen score Ucp4A [SID104199788]?
droplet/nuclear area B-score, replicate 1: -2.43

Which result is listed for CG1835 [SID104200352]?
droplet/nuclear area B-score, replicate 1: -0.545

Which result is listed for l(3)04053 [SID104191432]?
droplet/nuclear area B-score, replicate 1: -1.16

What did the screen give for CG6191 [SID104185730]?
droplet/nuclear area B-score, replicate 1: 1.02

How did the screen score CG6191 [SID104202484]?
droplet/nuclear area B-score, replicate 1: 0.468

Which result is listed for CG14313 [SID104194584]?
droplet/nuclear area B-score, replicate 1: 0.44

With CG12155 [SID104197618], what was measured?
droplet/nuclear area B-score, replicate 1: -1

Which result is listed for CG12155 [SID104202651]?
droplet/nuclear area B-score, replicate 1: -0.885

With CG2233 [SID104198009], what was measured?
droplet/nuclear area B-score, replicate 1: -0.376

What is on record for Sbp2 [SID104190558]?
droplet/nuclear area B-score, replicate 1: 0.0582

With Cmpk [SID104196435], what does the deposit list?
droplet/nuclear area B-score, replicate 1: -0.0138

What did the screen give for CG15458 [SID104200321]?
droplet/nuclear area B-score, replicate 1: -1.7
